The list is a part of this screen's results and no random one: it covers a few groups of compounds. Not every dose and run of a compound is shown. T/C: endpoint of the treated group in % of that of the vehicle group. For survival time, this PubChem deposit counts one and a half times the control or more as active, and values a quarter to a half above the control carry no call in these data; other NCI protocols may use other cut-offs. Some entries show no survivor count and are marked so; the dose need not have been tolerated. Schedule codes are those of the source, taken here to give the interval after Q, in days (D) or hours (H), and the number of doses after X. Some entries were tested several times; their values stand side by side, smallest first. Brackets with × count equal records among those shown.
System: BDF1 mice, P388 leukemia ip, median survival T/C
Assay: NCI In Vivo Anticancer Drug Screen. Data for tumor model P388 Leukemia (intraperitoneal) in B6D2F1 (BDF1) mice
Conditions: T/C endpoint: median survival time, higher T/C = longer survival
In short: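 Antitumour effect was judged in vivo: survival in drug-treated mice, normalised to that of vehicle-dosed controls, gives the reported T/C.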

NC(Cc1cccc(N(CCCl)CCCl)c1)C(=O)O (stereo unspecified)
T/C (dose: 0.31 mg/kg/injection, schedule: Q01DX010 (ip), vehicle: saline): 200 [survivor count not shown] and 300 % of control [survivor count not shown] | T/C (dose: 0.62 mg/kg/injection, schedule: Q01DX010 (ip), vehicle: saline): 235 [survivor count not shown] and 245 % of control [survivor count not shown] | T/C (dose: 0.63 mg/kg/injection, schedule: Q01DX010 (ip), vehicle: saline): 190 [survivor count not shown] and 204 % of control [survivor count not shown] | T/C (dose: 1.25 mg/kg/injection, schedule: Q01DX010 (ip), vehicle: saline): 240 [survivor count not shown] (2×), 245 [survivor count not shown], 300 % of control [survivor count not shown] | T/C (dose: 2.5 mg/kg/injection, schedule: Q01DX010 (ip), vehicle: saline): 175 [survivor count not shown], 254 [survivor count not shown], 260 [survivor count not shown], 300 % of control [survivor count not shown] | T/C (dose: 5.0 mg/kg/injection, schedule: Q01DX010 (ip), vehicle: saline): 120 [survivor count not shown], 155 [survivor count not shown], 300 % of control [survivor count not shown]

ClCCN(CCCl)CCSc1nc2ccccc2[nH]1
T/C (dose: 100.0 mg/kg/injection, schedule: Q01DX001 (ip), vehicle: saline with Tween-80): 90 % of control [survivor count not shown]

Cc1ccc(CN(CCCl)CCCl)cc1C
T/C (dose: 0.44 mg/kg/injection, schedule: Q01DX009 (ip), vehicle: saline): 92 % of control [survivor count not shown] | T/C (dose: 0.66 mg/kg/injection, schedule: Q01DX009 (ip), vehicle: saline): 100 % of control [survivor count not shown] | T/C (dose: 1.0 mg/kg/injection, schedule: Q01DX009 (ip), vehicle: saline): 117 % of control [survivor count not shown] | T/C (dose: 1.5 mg/kg/injection, schedule: Q01DX009 (ip), vehicle: saline): 142 % of control [survivor count not shown] | T/C (dose: 1.78 mg/kg/injection, schedule: Q04DX003 (ip), vehicle: saline): 116 % of control [survivor count not shown] | T/C (dose: 2.66 mg/kg/injection, schedule: Q04DX003 (ip), vehicle: saline): 137 % of control [survivor count not shown] | T/C (dose: 3.3 mg/kg/injection, schedule: Q01DX009 (ip), vehicle: saline): 154 % of control [survivor count not shown] | T/C (dose: 4.0 mg/kg/injection, schedule: Q04DX003 (ip), vehicle: saline): 133 % of control [survivor count not shown] | T/C (dose: 4.4 mg/kg/injection, schedule: Q04DX003 (ip), vehicle: saline): 172 % of control [survivor count not shown] | T/C (dose: 5.0 mg/kg/injection, schedule: Q01DX009 (ip), vehicle: saline): 159 % of control [survivor count not shown] | T/C (dose: 6.0 mg/kg/injection, schedule: Q04DX003 (ip), vehicle: saline): 137 % of control [survivor count not shown] | T/C (dose: 6.25 mg/kg/injection, schedule: Q04DX003 (ip), vehicle: saline): 131 % of control [survivor count not shown] | T/C (dose: 6.6 mg/kg/injection, schedule: Q04DX003 (ip), vehicle: saline): 154 % of control [survivor count not shown] | T/C (dose: 7.5 mg/kg/injection, schedule: Q01DX009 (ip), vehicle: saline): 177 % of control [survivor count not shown] | T/C (dose: 10.0 mg/kg/injection, schedule: Q04DX003 (ip), vehicle: saline): 159 % of control [survivor count not shown] | T/C (dose: 11.3 mg/kg/injection, schedule: Q01DX009 (ip), vehicle: saline): 204 % of control [survivor count not shown] | T/C (dose: 12.5 mg/kg/injection, schedule: Q04DX003 (ip), vehicle: saline): 154 % of control [survivor count not shown] | T/C (dose: 15.0 mg/kg/injection, schedule: Q04DX003 (ip), vehicle: saline): 181 % of control [survivor count not shown]

ClCCN(CCCl)c1ccc(C=C2C=CC=C2)cc1
T/C (dose: 100.0 mg/kg/injection, schedule: Q01DX008 (ip), vehicle: saline with Tween-80): 122 % of control [survivor count not shown] | T/C (dose: 100.0 mg/kg/injection, schedule: Q04DX003 (ip), vehicle: saline with Tween-80): 100 % of control [survivor count not shown] | T/C (dose: 200.0 mg/kg/injection, schedule: Q01DX008 (ip), vehicle: saline with Tween-80): 145 % of control [survivor count not shown] | T/C (dose: 200.0 mg/kg/injection, schedule: Q04DX003 (ip), vehicle: saline with Tween-80): 94 % of control [survivor count not shown] | T/C (dose: 400.0 mg/kg/injection, schedule: Q01DX008 (ip), vehicle: saline with Tween-80): 227 % of control [survivor count not shown] | T/C (dose: 400.0 mg/kg/injection, schedule: Q04DX003 (ip), vehicle: saline with Tween-80): 94 % of control [survivor count not shown]

Reference: PubChem BioAssay AID328 (DTP/NCI, 2004)
